Experimental findings from the supplement of paper PMC10849652 are described below.

The chains behind the UniProt entries cited, without tags or fusion partners. Where a name states a change or a piece, a line headed by the entry shows the natural chain unless it says otherwise.
UniProt O15118: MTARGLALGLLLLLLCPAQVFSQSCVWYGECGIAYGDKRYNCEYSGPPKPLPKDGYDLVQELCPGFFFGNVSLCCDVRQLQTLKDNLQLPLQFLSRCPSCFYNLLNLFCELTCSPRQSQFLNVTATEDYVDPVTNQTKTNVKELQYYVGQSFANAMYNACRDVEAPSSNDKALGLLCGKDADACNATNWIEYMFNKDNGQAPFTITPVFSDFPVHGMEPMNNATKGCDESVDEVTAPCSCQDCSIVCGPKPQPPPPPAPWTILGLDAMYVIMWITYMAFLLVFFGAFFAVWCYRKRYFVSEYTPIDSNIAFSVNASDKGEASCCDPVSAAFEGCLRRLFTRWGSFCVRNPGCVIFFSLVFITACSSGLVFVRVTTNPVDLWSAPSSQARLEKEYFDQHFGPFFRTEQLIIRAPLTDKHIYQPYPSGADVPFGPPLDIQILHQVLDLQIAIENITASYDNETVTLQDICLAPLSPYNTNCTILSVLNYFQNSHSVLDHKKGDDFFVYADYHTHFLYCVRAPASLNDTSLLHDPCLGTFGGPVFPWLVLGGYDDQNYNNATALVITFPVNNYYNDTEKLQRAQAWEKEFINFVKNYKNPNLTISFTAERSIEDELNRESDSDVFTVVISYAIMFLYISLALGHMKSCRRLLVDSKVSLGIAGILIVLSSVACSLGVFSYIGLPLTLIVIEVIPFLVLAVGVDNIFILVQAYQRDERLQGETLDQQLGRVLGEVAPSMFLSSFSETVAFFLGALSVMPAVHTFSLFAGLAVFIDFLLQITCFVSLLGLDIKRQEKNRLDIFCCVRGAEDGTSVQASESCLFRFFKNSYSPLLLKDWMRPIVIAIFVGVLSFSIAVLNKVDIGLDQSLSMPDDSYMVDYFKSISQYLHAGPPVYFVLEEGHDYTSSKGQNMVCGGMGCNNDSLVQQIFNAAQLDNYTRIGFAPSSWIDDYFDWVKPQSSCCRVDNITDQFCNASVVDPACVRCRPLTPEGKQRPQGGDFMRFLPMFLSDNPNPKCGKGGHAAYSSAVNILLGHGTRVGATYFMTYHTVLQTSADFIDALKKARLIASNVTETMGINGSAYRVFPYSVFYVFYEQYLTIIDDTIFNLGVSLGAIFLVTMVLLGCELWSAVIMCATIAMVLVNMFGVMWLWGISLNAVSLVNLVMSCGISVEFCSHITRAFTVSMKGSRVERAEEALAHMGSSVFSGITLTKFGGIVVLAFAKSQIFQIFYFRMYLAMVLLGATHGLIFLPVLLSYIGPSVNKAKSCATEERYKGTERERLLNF
UniProt Q8WVJ2: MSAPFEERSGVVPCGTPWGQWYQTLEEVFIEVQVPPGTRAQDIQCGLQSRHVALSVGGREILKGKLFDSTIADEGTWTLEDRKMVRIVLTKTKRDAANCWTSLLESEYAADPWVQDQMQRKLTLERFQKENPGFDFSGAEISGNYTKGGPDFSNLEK
UniProt Q5JPE7: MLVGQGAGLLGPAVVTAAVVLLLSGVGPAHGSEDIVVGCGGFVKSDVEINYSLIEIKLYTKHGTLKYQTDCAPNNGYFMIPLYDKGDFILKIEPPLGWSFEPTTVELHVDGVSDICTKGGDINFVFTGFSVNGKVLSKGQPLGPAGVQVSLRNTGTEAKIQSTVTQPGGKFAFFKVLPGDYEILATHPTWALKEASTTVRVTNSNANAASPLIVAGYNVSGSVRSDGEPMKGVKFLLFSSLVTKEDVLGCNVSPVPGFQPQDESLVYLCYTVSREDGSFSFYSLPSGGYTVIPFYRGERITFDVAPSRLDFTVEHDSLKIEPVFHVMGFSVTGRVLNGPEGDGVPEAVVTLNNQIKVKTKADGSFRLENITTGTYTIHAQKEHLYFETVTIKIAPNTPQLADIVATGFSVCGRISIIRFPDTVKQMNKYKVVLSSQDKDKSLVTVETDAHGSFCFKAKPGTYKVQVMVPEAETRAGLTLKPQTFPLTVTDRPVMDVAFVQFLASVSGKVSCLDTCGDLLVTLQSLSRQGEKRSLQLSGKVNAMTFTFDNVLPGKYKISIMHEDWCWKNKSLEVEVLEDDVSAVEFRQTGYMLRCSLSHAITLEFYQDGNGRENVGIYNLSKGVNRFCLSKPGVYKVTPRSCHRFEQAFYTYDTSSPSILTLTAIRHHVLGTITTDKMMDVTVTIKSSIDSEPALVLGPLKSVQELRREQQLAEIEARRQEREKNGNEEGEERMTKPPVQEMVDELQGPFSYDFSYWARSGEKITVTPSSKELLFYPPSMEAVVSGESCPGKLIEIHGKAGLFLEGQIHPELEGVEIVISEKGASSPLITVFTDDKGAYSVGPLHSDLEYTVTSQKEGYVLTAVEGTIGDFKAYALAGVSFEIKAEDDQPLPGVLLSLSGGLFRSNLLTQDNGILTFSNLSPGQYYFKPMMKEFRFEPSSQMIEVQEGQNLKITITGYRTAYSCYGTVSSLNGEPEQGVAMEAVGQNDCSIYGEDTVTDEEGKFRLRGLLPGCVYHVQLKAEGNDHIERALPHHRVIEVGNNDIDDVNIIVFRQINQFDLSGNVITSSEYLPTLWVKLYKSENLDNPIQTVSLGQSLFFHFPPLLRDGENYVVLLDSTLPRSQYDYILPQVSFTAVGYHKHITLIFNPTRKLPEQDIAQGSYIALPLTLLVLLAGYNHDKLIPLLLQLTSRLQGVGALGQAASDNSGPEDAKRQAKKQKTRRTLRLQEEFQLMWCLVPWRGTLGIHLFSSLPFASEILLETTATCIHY
UniProt Q96DE0: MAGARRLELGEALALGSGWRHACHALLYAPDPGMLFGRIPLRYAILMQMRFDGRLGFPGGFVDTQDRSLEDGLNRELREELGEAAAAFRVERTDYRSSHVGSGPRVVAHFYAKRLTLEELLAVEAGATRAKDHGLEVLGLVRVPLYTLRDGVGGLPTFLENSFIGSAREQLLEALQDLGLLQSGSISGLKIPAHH
UniProt Q96CB9: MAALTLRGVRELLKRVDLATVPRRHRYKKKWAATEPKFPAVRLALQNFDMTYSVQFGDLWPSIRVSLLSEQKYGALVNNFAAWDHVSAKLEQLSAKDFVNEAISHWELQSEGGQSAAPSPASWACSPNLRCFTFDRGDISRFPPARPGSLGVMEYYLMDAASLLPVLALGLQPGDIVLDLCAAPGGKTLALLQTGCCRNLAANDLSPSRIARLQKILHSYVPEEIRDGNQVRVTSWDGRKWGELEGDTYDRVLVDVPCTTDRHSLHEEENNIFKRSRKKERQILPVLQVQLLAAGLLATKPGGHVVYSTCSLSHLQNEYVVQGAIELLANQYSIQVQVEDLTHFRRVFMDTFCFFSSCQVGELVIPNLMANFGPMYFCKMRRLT
UniProt Q9NZJ9: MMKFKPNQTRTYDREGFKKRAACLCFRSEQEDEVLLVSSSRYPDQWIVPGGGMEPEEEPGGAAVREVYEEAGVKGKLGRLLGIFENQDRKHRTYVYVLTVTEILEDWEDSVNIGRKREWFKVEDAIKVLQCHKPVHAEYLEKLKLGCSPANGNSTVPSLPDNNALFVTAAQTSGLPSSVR
UniProt Q5TFE4: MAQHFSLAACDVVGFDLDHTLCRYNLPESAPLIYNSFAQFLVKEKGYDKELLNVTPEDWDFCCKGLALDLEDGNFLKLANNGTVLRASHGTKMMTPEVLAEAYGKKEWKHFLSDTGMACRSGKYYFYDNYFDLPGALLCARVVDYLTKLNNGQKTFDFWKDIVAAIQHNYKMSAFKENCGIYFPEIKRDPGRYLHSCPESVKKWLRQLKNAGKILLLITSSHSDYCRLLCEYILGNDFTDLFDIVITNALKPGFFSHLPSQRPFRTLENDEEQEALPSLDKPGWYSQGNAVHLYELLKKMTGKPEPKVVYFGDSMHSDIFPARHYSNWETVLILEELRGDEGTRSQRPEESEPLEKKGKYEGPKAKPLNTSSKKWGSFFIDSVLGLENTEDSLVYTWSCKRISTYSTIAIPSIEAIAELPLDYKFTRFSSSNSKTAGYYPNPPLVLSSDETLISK
UniProt P15559, whole entry, looked up: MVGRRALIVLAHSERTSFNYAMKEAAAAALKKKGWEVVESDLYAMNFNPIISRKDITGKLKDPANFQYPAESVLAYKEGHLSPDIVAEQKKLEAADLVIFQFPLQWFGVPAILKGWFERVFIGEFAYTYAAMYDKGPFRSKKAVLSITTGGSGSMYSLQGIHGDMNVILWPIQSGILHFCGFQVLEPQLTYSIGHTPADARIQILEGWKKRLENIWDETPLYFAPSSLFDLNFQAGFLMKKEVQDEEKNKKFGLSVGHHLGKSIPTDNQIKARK
UniProt P06748, whole entry, looked up: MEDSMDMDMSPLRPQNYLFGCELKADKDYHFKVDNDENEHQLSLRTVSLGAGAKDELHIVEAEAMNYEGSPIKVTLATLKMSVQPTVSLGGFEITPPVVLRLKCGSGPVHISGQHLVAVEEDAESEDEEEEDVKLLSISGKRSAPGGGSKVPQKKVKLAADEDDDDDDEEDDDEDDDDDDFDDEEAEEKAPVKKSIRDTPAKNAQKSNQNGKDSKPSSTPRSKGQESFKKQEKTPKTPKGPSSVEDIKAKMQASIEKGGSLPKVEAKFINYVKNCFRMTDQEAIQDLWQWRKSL
UniProt Q9Y2X3: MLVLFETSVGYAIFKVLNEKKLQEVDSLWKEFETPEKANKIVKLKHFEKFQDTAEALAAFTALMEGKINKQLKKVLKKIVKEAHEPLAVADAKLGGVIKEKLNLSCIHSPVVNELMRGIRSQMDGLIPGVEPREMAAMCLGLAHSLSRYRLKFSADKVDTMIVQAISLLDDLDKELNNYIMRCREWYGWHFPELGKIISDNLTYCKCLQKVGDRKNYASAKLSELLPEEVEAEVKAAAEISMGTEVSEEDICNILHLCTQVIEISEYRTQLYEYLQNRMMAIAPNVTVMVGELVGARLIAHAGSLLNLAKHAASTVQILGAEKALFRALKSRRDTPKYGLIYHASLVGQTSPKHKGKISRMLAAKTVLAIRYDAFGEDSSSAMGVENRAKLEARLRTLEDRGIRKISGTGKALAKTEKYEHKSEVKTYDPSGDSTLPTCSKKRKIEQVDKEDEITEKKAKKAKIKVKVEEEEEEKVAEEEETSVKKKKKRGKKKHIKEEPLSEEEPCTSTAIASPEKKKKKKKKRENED
UniProt Q9BQG2: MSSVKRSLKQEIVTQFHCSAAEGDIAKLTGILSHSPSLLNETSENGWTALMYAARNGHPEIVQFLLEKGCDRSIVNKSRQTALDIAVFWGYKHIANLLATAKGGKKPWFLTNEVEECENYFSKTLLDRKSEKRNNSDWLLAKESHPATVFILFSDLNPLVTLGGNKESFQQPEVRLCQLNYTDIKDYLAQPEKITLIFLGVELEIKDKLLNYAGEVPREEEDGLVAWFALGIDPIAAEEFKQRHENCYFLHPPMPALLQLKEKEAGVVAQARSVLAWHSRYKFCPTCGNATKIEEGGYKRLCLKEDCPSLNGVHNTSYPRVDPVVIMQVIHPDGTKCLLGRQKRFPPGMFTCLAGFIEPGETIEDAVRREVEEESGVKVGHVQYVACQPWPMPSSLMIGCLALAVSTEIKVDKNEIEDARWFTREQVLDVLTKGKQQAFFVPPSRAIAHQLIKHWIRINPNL
UniProt Q9BSC4: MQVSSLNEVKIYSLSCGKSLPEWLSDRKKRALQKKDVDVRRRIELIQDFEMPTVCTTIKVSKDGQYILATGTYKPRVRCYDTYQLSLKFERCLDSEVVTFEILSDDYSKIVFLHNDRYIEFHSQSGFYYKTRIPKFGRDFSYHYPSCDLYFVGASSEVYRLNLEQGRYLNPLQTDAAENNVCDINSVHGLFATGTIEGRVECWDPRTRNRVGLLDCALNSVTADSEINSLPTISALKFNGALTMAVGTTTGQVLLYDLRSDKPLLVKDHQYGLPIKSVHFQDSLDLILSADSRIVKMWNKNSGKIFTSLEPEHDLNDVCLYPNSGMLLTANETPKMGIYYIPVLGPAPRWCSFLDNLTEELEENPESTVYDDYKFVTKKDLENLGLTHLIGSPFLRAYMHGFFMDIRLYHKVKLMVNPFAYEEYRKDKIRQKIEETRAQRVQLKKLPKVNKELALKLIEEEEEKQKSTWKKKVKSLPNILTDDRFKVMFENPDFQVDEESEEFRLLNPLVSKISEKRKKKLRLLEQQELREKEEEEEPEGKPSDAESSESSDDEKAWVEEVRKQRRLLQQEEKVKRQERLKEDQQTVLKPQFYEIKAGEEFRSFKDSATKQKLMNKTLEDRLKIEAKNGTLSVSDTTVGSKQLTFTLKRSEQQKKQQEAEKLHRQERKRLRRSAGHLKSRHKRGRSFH
UniProt P22392, whole entry, looked up: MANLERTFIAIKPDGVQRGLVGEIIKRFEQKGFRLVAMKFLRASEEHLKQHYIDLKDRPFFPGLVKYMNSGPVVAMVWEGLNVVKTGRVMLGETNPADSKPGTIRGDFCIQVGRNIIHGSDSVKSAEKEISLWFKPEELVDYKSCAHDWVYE
UniProt O75414: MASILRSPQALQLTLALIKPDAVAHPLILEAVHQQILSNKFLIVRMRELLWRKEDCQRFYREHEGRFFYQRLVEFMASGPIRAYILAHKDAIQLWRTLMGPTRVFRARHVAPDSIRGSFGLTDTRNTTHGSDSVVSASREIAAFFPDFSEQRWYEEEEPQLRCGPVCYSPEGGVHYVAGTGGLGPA

This is one part of the list.

Experiment in all cases: log2 fold change, soluble protein after heating vs DMSO (PISA); higher = thermal stabilisation; K562 lysate, 10 uM; active = over 0.2 and 3.5 SD of the protein, either way, in both replicates (recomputed)
Compound in assay [1]: C1=CC=C(C=C1)[C@H](COC2=CC3=C(C=C2)NC(=O)N3)NC(=O)C4=CC=CN(C4=O)CC5=CC(=C(C=C5)F)F
In a few lines: (§1)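 Values give the log-two fold change in thermal stability against solvent controls, from duplicates. Crude K562 extract at 1 mg/mL protein, made by dounce homogenisation in PBS pH 7.4 with 1 mM MgCl2, was treated with 10 μM compound for 30 min. After 3 min heating across 48°C-58°C, aliquots were pooled, adjusted to 0.5% NP-40 at 4°C and centrifuged at 21,000xg for 90 min. The supernatant was measured by TMTpro 16plex LC-MS/MS with channel sums equalised.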

Compound in assay [2]: CC1=C(SC2=C1C(=N[C@H](C3=NN=C(N32)C)CC(=O)N)C4=CC=C(C=C4)Cl)C
A digest of the protocol: as §1

Compound in assay [3]: CC1=C2C(=CC=C1)N=C(N(C2=O)C3=CC=CC=C3C)CN4C=NC5=C(N=CN=C54)N
In a few lines:
as §1

Compound in assay [4]: Cc1sc2c(c1C)C(c1ccc(Cl)cc1)=N[C@@H](CC(=O)OC(C)(C)C)c1nnc(C)n1-2
A digest of the protocol: as §1

Compound in assay [5]: c1ccc([C@@H]2C[C@H]2NC2CCNCC2)cc1
In a few lines:
as §1

Consider NOC3L (UniProt Q8WTT2), for which the log2 fold change in assay [1] is inactive: 0.113; in assay [2], inactive: -0.027; in assay [3], inactive: -0.07; in assay [4], inactive: -0.023; in assay [5] it was inactive: 0.001.

As to NPC1 (UniProt O15118), the log2 fold change in assay [1] is inactive: 0.014; in assay [2] it was inactive: -0.032; in assay [3], inactive: -0.023; in assay [4], inactive: -0.059; in assay [5], inactive: -0.03.

On to NUDCD2 (UniProt Q8WVJ2), for which the log2 fold change is inactive: 0.034 in assay [1]; inactive: -0.006 in assay [2]; inactive: 0.004 in assay [3]; inactive: -0.011 in assay [4]; inactive: -0.084 in assay [5].

As to NONO (UniProt Q15233), the log2 fold change in assay [1] is inactive: -0.047; in assay [2], inactive: 0.02; in assay [3], inactive: 0.015; in assay [4], inactive: 0.026; in assay [5], inactive: 0.074.

On to NOMO2 (UniProt Q5JPE7), for which the log2 fold change in assay [1] is inactive: -0.026; in assay [2], inactive: 0.045; in assay [3], inactive: 0.013; in assay [4] it was inactive: -0.019; in assay [5], inactive: -0.011.

As for NUDT16 (UniProt Q96DE0), the log2 fold change in assay [1] is inactive: 0.008; in assay [2], inactive: -0.05; in assay [3] it was inactive: -0.052; in assay [4], inactive: -0.047; in assay [5], inactive: -0.004.

Turning to NUMA1 (UniProt Q14980), the log2 fold change in assay [1] was inactive: 0.006; in assay [2] it was inactive: 0.02; in assay [3] it was inactive: 0.022; in assay [4], inactive: 0.019; in assay [5] it was inactive: 0.052.

With NSUN4 (UniProt Q96CB9), the log2 fold change is inactive: -0.248 in assay [1], inactive: 0.141 in assay [2], inactive: 0.04 in assay [3] and inactive: -0.149 in assay [4].

With NT5C (UniProt J3KSX6), the results for the log2 fold change in assay [1] and in assay [2] were inactive: -0.045 and inactive: 0.011, respectively.

For the target NUDT4 (UniProt Q9NZJ9), the log2 fold change in assay [1] was inactive: 0.037; in assay [2], inactive: -0.025; in assay [3] it was inactive: 0.004; in assay [4], inactive: 0.075; in assay [5], inactive: 0.242.

For NT5DC1 (UniProt Q5TFE4), the log2 fold change in assay [1] was inactive: -0.01; in assay [2], inactive: 0.006; in assay [3], inactive: -0.05; in assay [4], inactive: 0.017; in assay [5] it was inactive: 0.001.

With NT5DC2 isoform 2 (UniProt Q9H857), the log2 fold change in assay [1] is inactive: 0.021; in assay [2], inactive: -0.026; in assay [3], inactive: 0.009; in assay [4], inactive: 0.051; in assay [5] it was inactive: -0.022.

On to NQO1 (UniProt P15559), for which the log2 fold change is active: 0.433 in assay [1]; inactive: 0.025 in assay [2]; inactive: 0.223 in assay [3]; inactive: -0.008 in assay [4]; inactive: -0.016 in assay [5].

Regarding NMNAT3 (UniProt Q96T66), the figures for the log2 fold change in assay [1] and in assay [2] were inactive: 0.035 and inactive: -0.045, respectively.

For the target NPM1 (UniProt P06748), the log2 fold change in assay [1] is inactive: 0.041; in assay [2] it was inactive: -0.036; in assay [3] it was inactive: -0.012; in assay [4], inactive: 0.023; in assay [5] it was inactive: 0.011.

Consider NOP58 (UniProt Q9Y2X3), for which the log2 fold change was inactive: 0.002 in assay [1]; inactive: 0.005 in assay [2]; inactive: -0.014 in assay [3]; inactive: 0.067 in assay [4]; inactive: 0.023 in assay [5].

With NOP2 isoform 4 (UniProt P46087), the log2 fold change in assay [1] is inactive: 0.046; in assay [2] it was inactive: 0.002; in assay [3], inactive: 0.018; in assay [4] it was inactive: 0.017; in assay [5], inactive: 0.018.

For NSUN5 isoform 2 (UniProt Q96P11), the log2 fold change in assay [1] was inactive: -0.026; in assay [2], inactive: 0.02; in assay [3] it was inactive: -0.049; in assay [4], inactive: 0.015; in assay [5], inactive: 0.033.

Take NME1 isoform 2 (UniProt P15531): the log2 fold change in assay [1] was inactive: 0.031; in assay [2], inactive: 0.067; in assay [3], inactive: -0.064; in assay [4] it was inactive: -0.005; in assay [5] it was inactive: 0.053.

On to NT5C3A (UniProt Q9H0P0), for which the log2 fold change in assay [1] is inactive: 0.027; in assay [2], inactive: -0.011; in assay [3], inactive: 0.022; in assay [4] it was inactive: -0.006; in assay [5] it was inactive: -0.024.

For NUDT4 isoform 2 (UniProt Q9NZJ9), the log2 fold change is inactive: 0.009 in assay [1]; inactive: -0.011 in assay [2]; inactive: 0.01 in assay [3]; inactive: 0.067 in assay [4]; inactive: -0.026 in assay [5].

Consider NUDT12 (UniProt Q9BQG2), for which the log2 fold change in assay [1] is inactive: -0.037; in assay [2], inactive: 0.018; in assay [3], inactive: -0.047; in assay [4], inactive: -0.051; in assay [5] it was inactive: 0.012.

Regarding NOL10 (UniProt Q9BSC4), the log2 fold change in assay [1] is inactive: -0.043; in assay [2], inactive: -0.049; in assay [3], inactive: -0.032; in assay [4], inactive: -0.061; in assay [5], inactive: 0.18.

Regarding NUDT15 (UniProt Q9NV35), the log2 fold change in assay [1] was inactive: -0.024; in assay [2], inactive: -0.041; in assay [3], inactive: 0.001; in assay [4] it was inactive: -0.003; in assay [5], inactive: -0.02.

Take NMT2 (UniProt O60551): the log2 fold change is inactive: -0.025 in assay [1]; inactive: 0.061 in assay [2]; inactive: 0.018 in assay [3]; inactive: 0.025 in assay [4]; inactive: -0.043 in assay [5].

As to NME2 isoform 2 (UniProt P22392), the log2 fold change in assay [1] was inactive: 0.001; in assay [2], inactive: 0.016; in assay [3], inactive: -0.026; in assay [4], inactive: -0.01; in assay [5], inactive: -0.025.

For NME6 (UniProt O75414), the log2 fold change is inactive: 0.016 in assay [1]; inactive: -0.062 in assay [2]; inactive: 0 in assay [3]; inactive: 0.015 in assay [4]; inactive: 0.008 in assay [5].

On to NR2C2AP isoform 2 (UniProt Q86WQ0), for which the log2 fold change is inactive: -0.099 in assay [1]; inactive: 0.044 in assay [2]; inactive: 0.085 in assay [3]; inactive: 0.042 in assay [4]; inactive: 0.022 in assay [5].
